Values from PubChem BioAssay AID1224828 (NIAID, 2016).

- Purpose: 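Find genes required for NF-kappaB p65 moving into the nucleus after LPS in mouse macrophages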 (primary screen)
- Cell system: mouse RAW264.7 G9 macrophage reporter cells (GFP-p65, Tnf promoter-mCherry)
- Knock-down reagent: siRNA pool against mouse genes, 100 nM
- Time to read-out: 2 days siRNA transfection, then 40 min LPS before fixation
- Conditions: LPS (Salmonella minnesota R595) at 10 ng/ml
- Detection: 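Imaged p65 nuclear translocation ratio, normalised to the plate median, converted to robust z-scores and averaged across two replicates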
- Scale: p65 translocation robust z-score: higher = more nuclear NF-kappaB p65 after LPS than the plate median; nuclear/cytoplasmic p65 ratio: higher = more nuclear NF-kappaB p65
- Hit rule: 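Active if robust z is above 3.3 (negative regulators) or below -1.56, the Tlr4 control median (positive regulators); activity score 50 or more; control wells not called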
- Meaning of the calls: active = hit (p65 shift raised or lowered); inactive = no clear change
Here is an unselected part of about 17,000 reagents. 762 of them (4.5%) were called active. 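Active calls include both raised and lowered p65 entry, mostly lowered; wells with fewer than 50 cells lack a z-score.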 The raw values are shown without normalisation.

gene knocked down | p65 translocation robust z-score | nuclear/cytoplasmic p65 ratio, rep 1 | nuclear/cytoplasmic p65 ratio, rep 2 | low cell count flag | outcome
Pitpnb (GeneID 56305) | 0.11 | 1.44 | 1.19 | enough cells to score | inactive
Pcdhgc5 (GeneID 93708) | -1.11 | 1.29 | 1.11 | enough cells to score | inactive
Unc93a (GeneID 381058) | – | 1.29 | 1.23 | fewer than 50 cells per well; well left out of scoring | inactive
Or13c7b (GeneID 29846) | -0.37 | 1.58 | 1.35 | enough cells to score | inactive
Fus (GeneID 233908) | -0.05 | 1.35 | 1.44 | enough cells to score | inactive
Alyref2 (GeneID 56009) | – | 1.27 | 1.06 | fewer than 50 cells per well; well left out of scoring | inactive
Shld2 (GeneID 75698) | 1.1 | 1.61 | 1.94 | enough cells to score | inactive
Adam3 (GeneID 11497) | 0.64 | 1.71 | 1.77 | enough cells to score | inactive
Disp1 (GeneID 68897) | -0.82 | 1.36 | 1.25 | enough cells to score | inactive
Pigp (GeneID 56176) | -0.45 | 1.4 | 1.31 | enough cells to score | inactive
Macir (GeneID 52392) | 2.43 | 1.94 | 1.88 | enough cells to score | inactive
Mlph (GeneID 171531) | 0.96 | 1.85 | 1.81 | enough cells to score | inactive
Krtap26-1 (GeneID 69533) | – | 1.5 | 1.41 | fewer than 50 cells per well; well left out of scoring | inactive
Tm2d3 (GeneID 68634) | 0.26 | 1.51 | 1.55 | enough cells to score | inactive
Sytl3 (GeneID 83672) | – | 1.44 | 1.28 | fewer than 50 cells per well; well left out of scoring | inactive
Mcm3 (GeneID 17215) | -0.8 | 1.33 | 1.25 | enough cells to score | inactive
D2hgdh (GeneID 98314) | 0.51 | 1.66 | 1.79 | enough cells to score | inactive
Cggbp1 (GeneID 106143) | 1.27 | 1.58 | 1.59 | enough cells to score | inactive
Spred3 (GeneID 101809) | 1.43 | 1.83 | 1.97 | enough cells to score | inactive
Or5b120 (GeneID 258691) | 0.68 | 1.75 | 1.48 | enough cells to score | inactive
Pigh (GeneID 110417) | -0.08 | 1.39 | 1.27 | enough cells to score | inactive
Fgd1 (GeneID 14163) | 0.42 | 1.53 | 1.41 | enough cells to score | inactive
Sdcbp (GeneID 53378) | 0.96 | 1.61 | 1.27 | enough cells to score | inactive
Pcdhb12 (GeneID 93883) | 0.53 | 1.51 | 1.24 | enough cells to score | inactive
Or51f2 (GeneID 259095) | 0.13 | 1.46 | 1.09 | enough cells to score | inactive
Mrps26 (GeneID 99045) | 0.44 | 1.7 | 1.72 | enough cells to score | inactive
Parvg (GeneID 64099) | 1.48 | 1.62 | 1.43 | enough cells to score | inactive
Gabpb1 (GeneID 14391) | -1.1 | 1.3 | 1.22 | enough cells to score | inactive
5730453H04RIK | -0.63 | 1.27 | 1.39 | enough cells to score | inactive
Nos1 (GeneID 18125) | 0.54 | 1.59 | 1.42 | enough cells to score | inactive
Or10ag53 (GeneID 258294) | -0.86 | 1.59 | 1.39 | enough cells to score | inactive
Cldn6 (GeneID 54419) | -1.9 | 1.32 | 1.46 | enough cells to score | active
Kcnf1 (GeneID 382571) | 0.59 | 1.49 | 1.51 | enough cells to score | inactive
Tmem68 (GeneID 72098) | 0.01 | 1.4 | 1.28 | enough cells to score | inactive
Krt18 (GeneID 16668) | -1.16 | 1.3 | 1.25 | enough cells to score | inactive
Xylb (GeneID 102448) | -0.05 | 1.54 | 1.49 | enough cells to score | inactive
Rps4x (GeneID 20102) | -0.27 | 1.56 | 1.4 | enough cells to score | inactive
Abhd4 (GeneID 105501) | -0.26 | 1.53 | 1.62 | enough cells to score | inactive
1700049L16Rik (GeneID 108950) | – | 1.45 | 1.35 | fewer than 50 cells per well; well left out of scoring | inactive
Shcbp1 (GeneID 20419) | 0.14 | 1.4 | 1.29 | enough cells to score | inactive
